# Measured values taken from the supplement of paper PMC10077471.
# In all, about 1,900 compounds were measured (“excess over highest single agent (ExcessHSA) synergy score, 6x6 matrix”: median about -83, lowest 2% from about -370 on). Some of the results follow.
# System: NCI-H446
# Experiment: excess over highest single agent (ExcessHSA) synergy score, 6x6 matrix; higher = less synergy (more negative = stronger synergy)
# Conditions: 72 h; CellTiter-Glo viability
row,SMILES,excess over highest single agent
1,CN(C)/N=N/c1[nH]cnc1C(N)=O + Cc1sc2c(c1C)C(c1ccc(Cl)cc1)=N[C@@H](CC(=O)OC(C)(C)C)c1nnc(C)n1-2 [NCGC00250412-19],-81.2
2,O=C(O)c1cccnc1Nc1cccc(C(F)(F)F)c1 + Cc1sc2c(c1C)C(c1ccc(Cl)cc1)=N[C@@H](CC(=O)OC(C)(C)C)c1nnc(C)n1-2 [NCGC00250412-19],33
3,Cc1oncc1C(=O)Nc1ccc(C(F)(F)F)cc1 + Cc1sc2c(c1C)C(c1ccc(Cl)cc1)=N[C@@H](CC(=O)OC(C)(C)C)c1nnc(C)n1-2 [NCGC00250412-19],-68.6
4,NC1(C(=O)N[C@@H](CCO)c2ccc(Cl)cc2)CCN(c2ncnc3[nH]ccc23)CC1 + Cc1sc2c(c1C)C(c1ccc(Cl)cc1)=N[C@@H](CC(=O)OC(C)(C)C)c1nnc(C)n1-2 [NCGC00250412-19],-281
5,Cc1cn([C@H]2O[C@@H](CO)[C@H](O)[C@H]2F)c(=O)[nH]c1=O + Cc1sc2c(c1C)C(c1ccc(Cl)cc1)=N[C@@H](CC(=O)OC(C)(C)C)c1nnc(C)n1-2 [NCGC00250412-19],-80.3
6,CC(C)c1ccc2oc3nc(N)c(C(=O)O)cc3c(=O)c2c1 + Cc1sc2c(c1C)C(c1ccc(Cl)cc1)=N[C@@H](CC(=O)OC(C)(C)C)c1nnc(C)n1-2 [NCGC00250412-19],-73.2
7,COC(=O)Nc1nc2cc(C(=O)c3ccccc3)ccc2[nH]1 + Cc1sc2c(c1C)C(c1ccc(Cl)cc1)=N[C@@H](CC(=O)OC(C)(C)C)c1nnc(C)n1-2 [NCGC00250412-19],-202
8,O=C1[C@H](Cc2ccc(O)cc2)N2C(=O)CCN(C(=O)NCc3ccccc3)[C@H]2CN1Cc1cccc2ccccc12 + Cc1sc2c(c1C)C(c1ccc(Cl)cc1)=N[C@@H](CC(=O)OC(C)(C)C)c1nnc(C)n1-2 [NCGC00250412-19],-294
9,CC1=C(O)C(=O)C=C2C1=CC=C1[C@@]2(C)CC[C@@]2(C)[C@@H]3C[C@](C)(C(=O)O)CC[C@]3(C)CC[C@]12C + Cc1sc2c(c1C)C(c1ccc(Cl)cc1)=N[C@@H](CC(=O)OC(C)(C)C)c1nnc(C)n1-2 [NCGC00250412-19],-208
10,COc1cccc([C@@H](C)NCCCc2ccccc2Cl)c1 + Cc1sc2c(c1C)C(c1ccc(Cl)cc1)=N[C@@H](CC(=O)OC(C)(C)C)c1nnc(C)n1-2 [NCGC00250412-19],-83.7
11,CC(C)OC(=O)[C@H](C)N[P@](=O)(OC[C@H]1O[C@@H](n2ccc(=O)[nH]c2=O)[C@](C)(F)[C@@H]1O)Oc1ccccc1 + Cc1sc2c(c1C)C(c1ccc(Cl)cc1)=N[C@@H](CC(=O)OC(C)(C)C)c1nnc(C)n1-2 [NCGC00250412-19],-64.6
12,Cc1cnc(Nc2cccc(CN3CCOCC3)c2)nc1Nc1cccc(S(=O)(=O)NC(C)(C)C)c1 + Cc1sc2c(c1C)C(c1ccc(Cl)cc1)=N[C@@H](CC(=O)OC(C)(C)C)c1nnc(C)n1-2 [NCGC00250412-19],108
13,CC1(C)S[C@@H]2[C@H](NC(=O)[C@H](N)c3ccc(O)cc3)C(=O)N2[C@H]1C(=O)O + Cc1sc2c(c1C)C(c1ccc(Cl)cc1)=N[C@@H](CC(=O)OC(C)(C)C)c1nnc(C)n1-2 [NCGC00250412-19],-55.3
14,Cc1cc(C(=O)NOCCO)c(Nc2ccc(I)cc2F)n(C)c1=O + Cc1sc2c(c1C)C(c1ccc(Cl)cc1)=N[C@@H](CC(=O)OC(C)(C)C)c1nnc(C)n1-2 [NCGC00250412-19],-340
15,COc1cccc2c1C(=O)c1c(O)c3c(c(O)c1C2=O)C[C@@](O)(C(=O)CO)C[C@@H]3O[C@H]1C[C@H](N)[C@H](O)[C@H](C)O1 + Cc1sc2c(c1C)C(c1ccc(Cl)cc1)=N[C@@H](CC(=O)OC(C)(C)C)c1nnc(C)n1-2 [NCGC00250412-19],-176
16,Nc1nc(Cl)nc2c1ncn2[C@H]1C[C@H](O)[C@@H](CO)O1 + Cc1sc2c(c1C)C(c1ccc(Cl)cc1)=N[C@@H](CC(=O)OC(C)(C)C)c1nnc(C)n1-2 [NCGC00250412-19],-73.1
17,CN[C@@H]1[C@H](O[C@H]2[C@H](O[C@H]3[C@H](O)[C@@H](O)[C@H](N=C(N)N)[C@@H](O)[C@@H]3N=C(N)N)O[C@@H](C)[C@]2(O)C=O)O[C@@H](CO)[C@H](O)[C@H]1O + Cc1sc2c(c1C)C(c1ccc(Cl)cc1)=N[C@@H](CC(=O)OC(C)(C)C)c1nnc(C)n1-2 [NCGC00250412-19],-60.5
18,CCOC(=O)c1c(/C(C#N)=C\N)c2ccc(Cl)c(Cl)c2n1C + Cc1sc2c(c1C)C(c1ccc(Cl)cc1)=N[C@@H](CC(=O)OC(C)(C)C)c1nnc(C)n1-2 [NCGC00250412-19],-161
19,C[C@H]1CCC/C=C/[C@@H]2C[C@H](O)C[C@H]2[C@H](O)/C=C/C(=O)O1 + Cc1sc2c(c1C)C(c1ccc(Cl)cc1)=N[C@@H](CC(=O)OC(C)(C)C)c1nnc(C)n1-2 [NCGC00250412-19],-30.5
20,Fc1ccc(C(c2ccc(F)cc2)N2CCN(C/C=C/c3ccccc3)CC2)cc1 + Cc1sc2c(c1C)C(c1ccc(Cl)cc1)=N[C@@H](CC(=O)OC(C)(C)C)c1nnc(C)n1-2 [NCGC00250412-19],-302
21,O=c1cc(-c2cccc3c2Sc2ccccc2S3)oc(N2CCOCC2)c1 + Cc1sc2c(c1C)C(c1ccc(Cl)cc1)=N[C@@H](CC(=O)OC(C)(C)C)c1nnc(C)n1-2 [NCGC00250412-19],-45
22,O=C(O)c1cc(O)c2c(c1)C(=O)c1cccc(O)c1C2=O + Cc1sc2c(c1C)C(c1ccc(Cl)cc1)=N[C@@H](CC(=O)OC(C)(C)C)c1nnc(C)n1-2 [NCGC00250412-19],-65.1
23,N#Cc1c(O)c2c(-c3ccc(-c4ccccc4O)cc3)csc2[nH]c1=O + Cc1sc2c(c1C)C(c1ccc(Cl)cc1)=N[C@@H](CC(=O)OC(C)(C)C)c1nnc(C)n1-2 [NCGC00250412-19],-203
24,Cn1c(NCCN(CCO)CCCc2ccc([N+](=O)[O-])cc2)cc(=O)n(C)c1=O + Cc1sc2c(c1C)C(c1ccc(Cl)cc1)=N[C@@H](CC(=O)OC(C)(C)C)c1nnc(C)n1-2 [NCGC00250412-19],-179

# In a second layout: entries from further up.
row | SMILES | excess over highest single agent
5 | Cc1cn([C@H]2O[C@@H](CO)[C@H](O)[C@H]2F)c(=O)[nH]c1=O + Cc1sc2c(c1C)C(c1ccc(Cl)cc1)=N[C@@H](CC(=O)OC(C)(C)C)c1nnc(C)n1-2 [NCGC00250412-19] | -80.3
6 | CC(C)c1ccc2oc3nc(N)c(C(=O)O)cc3c(=O)c2c1 + Cc1sc2c(c1C)C(c1ccc(Cl)cc1)=N[C@@H](CC(=O)OC(C)(C)C)c1nnc(C)n1-2 [NCGC00250412-19] | -73.2
7 | COC(=O)Nc1nc2cc(C(=O)c3ccccc3)ccc2[nH]1 + Cc1sc2c(c1C)C(c1ccc(Cl)cc1)=N[C@@H](CC(=O)OC(C)(C)C)c1nnc(C)n1-2 [NCGC00250412-19] | -202
8 | O=C1[C@H](Cc2ccc(O)cc2)N2C(=O)CCN(C(=O)NCc3ccccc3)[C@H]2CN1Cc1cccc2ccccc12 + Cc1sc2c(c1C)C(c1ccc(Cl)cc1)=N[C@@H](CC(=O)OC(C)(C)C)c1nnc(C)n1-2 [NCGC00250412-19] | -294
